Assay results reported in the supplement of paper PMC10849652.
The other results are listed elsewhere or left out. Residues, ends and D or L forms follow the SMILES beside them. *: point of attachment. Cbz = O=C(OCc1ccccc1)*

By UniProt entry, the sequences of proteins in these tests, tags left out. Where a name states a change or a piece, a line headed by the entry shows the natural chain unless it says otherwise.
UniProt P37268: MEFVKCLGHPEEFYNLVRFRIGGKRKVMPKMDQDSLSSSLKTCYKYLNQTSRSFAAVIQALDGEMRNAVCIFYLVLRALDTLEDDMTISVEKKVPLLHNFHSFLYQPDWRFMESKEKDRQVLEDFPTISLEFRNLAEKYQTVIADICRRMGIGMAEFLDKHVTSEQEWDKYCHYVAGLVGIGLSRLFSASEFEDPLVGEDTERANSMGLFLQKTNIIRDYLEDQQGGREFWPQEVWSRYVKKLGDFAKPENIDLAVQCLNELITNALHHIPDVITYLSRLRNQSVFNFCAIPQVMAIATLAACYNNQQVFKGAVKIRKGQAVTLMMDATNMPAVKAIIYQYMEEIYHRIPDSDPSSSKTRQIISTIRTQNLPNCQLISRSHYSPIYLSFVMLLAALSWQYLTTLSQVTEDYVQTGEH
UniProt Q6PIJ6: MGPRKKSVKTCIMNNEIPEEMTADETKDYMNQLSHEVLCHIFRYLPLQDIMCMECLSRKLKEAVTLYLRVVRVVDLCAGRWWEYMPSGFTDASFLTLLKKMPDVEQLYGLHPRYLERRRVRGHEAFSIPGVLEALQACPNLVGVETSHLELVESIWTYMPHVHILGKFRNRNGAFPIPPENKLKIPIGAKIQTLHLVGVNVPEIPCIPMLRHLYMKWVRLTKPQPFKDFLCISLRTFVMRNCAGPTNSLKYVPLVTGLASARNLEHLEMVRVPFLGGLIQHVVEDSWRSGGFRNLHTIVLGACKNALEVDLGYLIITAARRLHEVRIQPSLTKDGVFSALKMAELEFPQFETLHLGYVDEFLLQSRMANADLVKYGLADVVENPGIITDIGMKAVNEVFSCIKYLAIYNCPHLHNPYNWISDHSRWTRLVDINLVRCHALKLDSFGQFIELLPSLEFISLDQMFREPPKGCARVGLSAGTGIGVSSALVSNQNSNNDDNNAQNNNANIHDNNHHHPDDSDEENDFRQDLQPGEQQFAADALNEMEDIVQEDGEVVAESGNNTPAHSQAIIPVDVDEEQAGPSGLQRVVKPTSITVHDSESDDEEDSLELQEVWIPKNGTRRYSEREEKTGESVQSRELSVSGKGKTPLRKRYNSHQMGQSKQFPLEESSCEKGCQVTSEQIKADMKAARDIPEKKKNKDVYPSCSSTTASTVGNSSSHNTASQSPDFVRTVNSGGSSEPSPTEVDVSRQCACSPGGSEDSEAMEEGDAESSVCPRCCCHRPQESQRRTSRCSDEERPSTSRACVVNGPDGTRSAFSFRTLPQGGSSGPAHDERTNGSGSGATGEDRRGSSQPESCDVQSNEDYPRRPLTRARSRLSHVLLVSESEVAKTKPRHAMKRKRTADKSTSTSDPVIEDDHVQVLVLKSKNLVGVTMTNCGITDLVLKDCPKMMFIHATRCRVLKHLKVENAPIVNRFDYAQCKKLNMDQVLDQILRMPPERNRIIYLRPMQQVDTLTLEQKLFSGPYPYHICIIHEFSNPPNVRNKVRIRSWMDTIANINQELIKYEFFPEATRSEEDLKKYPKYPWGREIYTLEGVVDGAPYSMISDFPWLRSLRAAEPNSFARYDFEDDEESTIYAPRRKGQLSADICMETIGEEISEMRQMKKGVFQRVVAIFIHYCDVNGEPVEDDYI
UniProt Q9NVK5: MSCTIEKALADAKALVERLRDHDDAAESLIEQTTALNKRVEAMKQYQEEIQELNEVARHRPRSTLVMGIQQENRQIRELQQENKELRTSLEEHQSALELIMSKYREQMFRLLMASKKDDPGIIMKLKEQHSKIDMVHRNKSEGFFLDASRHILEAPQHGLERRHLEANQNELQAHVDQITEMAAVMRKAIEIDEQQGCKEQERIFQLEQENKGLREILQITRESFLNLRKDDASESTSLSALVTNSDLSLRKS
UniProt Q8IW50: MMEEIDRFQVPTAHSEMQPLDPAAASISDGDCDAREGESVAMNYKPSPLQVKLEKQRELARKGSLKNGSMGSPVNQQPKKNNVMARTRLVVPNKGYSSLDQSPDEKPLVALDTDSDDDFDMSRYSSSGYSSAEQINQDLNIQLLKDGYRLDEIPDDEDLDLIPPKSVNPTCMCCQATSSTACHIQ
UniProt Q9Y3I1: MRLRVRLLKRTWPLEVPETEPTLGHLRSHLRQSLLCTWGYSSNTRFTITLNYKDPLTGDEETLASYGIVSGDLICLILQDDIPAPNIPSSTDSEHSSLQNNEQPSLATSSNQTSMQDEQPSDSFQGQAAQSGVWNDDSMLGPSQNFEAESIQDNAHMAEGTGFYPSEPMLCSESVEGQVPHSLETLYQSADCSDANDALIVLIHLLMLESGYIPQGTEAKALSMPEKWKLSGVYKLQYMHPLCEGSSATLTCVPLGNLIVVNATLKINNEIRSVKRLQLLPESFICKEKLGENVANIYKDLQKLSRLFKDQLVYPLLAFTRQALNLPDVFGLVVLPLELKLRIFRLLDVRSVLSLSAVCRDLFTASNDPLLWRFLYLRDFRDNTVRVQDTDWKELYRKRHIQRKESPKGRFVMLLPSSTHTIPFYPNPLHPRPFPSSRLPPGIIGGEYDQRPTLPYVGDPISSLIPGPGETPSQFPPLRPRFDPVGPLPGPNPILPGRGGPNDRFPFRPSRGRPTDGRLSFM
UniProt Q9Y680: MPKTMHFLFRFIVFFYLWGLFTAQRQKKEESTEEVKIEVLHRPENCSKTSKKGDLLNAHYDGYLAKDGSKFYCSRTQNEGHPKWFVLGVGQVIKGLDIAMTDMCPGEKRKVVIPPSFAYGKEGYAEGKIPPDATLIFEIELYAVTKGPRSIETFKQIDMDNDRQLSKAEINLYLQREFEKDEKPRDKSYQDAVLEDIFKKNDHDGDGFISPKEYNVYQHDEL
UniProt Q86WN1: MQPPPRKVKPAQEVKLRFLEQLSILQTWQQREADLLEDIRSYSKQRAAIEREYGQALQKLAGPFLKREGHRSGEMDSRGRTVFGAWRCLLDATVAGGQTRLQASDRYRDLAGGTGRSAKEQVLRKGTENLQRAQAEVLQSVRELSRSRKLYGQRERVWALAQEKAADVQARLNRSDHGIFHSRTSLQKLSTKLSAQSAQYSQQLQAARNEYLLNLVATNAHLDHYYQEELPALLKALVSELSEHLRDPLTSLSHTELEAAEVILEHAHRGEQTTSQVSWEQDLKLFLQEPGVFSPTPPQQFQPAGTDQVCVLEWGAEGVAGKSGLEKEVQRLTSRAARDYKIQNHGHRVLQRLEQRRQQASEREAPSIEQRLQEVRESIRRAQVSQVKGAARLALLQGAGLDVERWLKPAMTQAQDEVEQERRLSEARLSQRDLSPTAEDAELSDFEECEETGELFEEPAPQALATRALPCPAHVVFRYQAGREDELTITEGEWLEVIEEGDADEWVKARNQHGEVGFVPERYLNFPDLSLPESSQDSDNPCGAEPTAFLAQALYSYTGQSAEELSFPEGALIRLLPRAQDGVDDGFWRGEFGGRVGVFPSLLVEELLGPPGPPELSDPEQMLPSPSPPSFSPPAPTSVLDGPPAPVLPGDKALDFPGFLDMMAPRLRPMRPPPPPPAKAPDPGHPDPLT
UniProt Q9UK99: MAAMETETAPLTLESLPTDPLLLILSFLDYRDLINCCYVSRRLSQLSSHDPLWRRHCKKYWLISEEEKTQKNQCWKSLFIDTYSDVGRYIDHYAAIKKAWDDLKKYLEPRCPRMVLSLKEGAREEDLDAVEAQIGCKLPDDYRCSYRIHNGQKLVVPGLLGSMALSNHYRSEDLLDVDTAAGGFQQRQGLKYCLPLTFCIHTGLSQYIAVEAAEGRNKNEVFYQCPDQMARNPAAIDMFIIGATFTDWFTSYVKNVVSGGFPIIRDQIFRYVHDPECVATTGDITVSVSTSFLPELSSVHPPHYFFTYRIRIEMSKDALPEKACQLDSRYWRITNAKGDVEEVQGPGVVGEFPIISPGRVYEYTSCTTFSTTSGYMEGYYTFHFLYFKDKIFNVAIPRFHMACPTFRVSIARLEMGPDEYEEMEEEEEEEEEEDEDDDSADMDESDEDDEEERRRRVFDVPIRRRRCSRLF
UniProt P39748, whole entry, looked up: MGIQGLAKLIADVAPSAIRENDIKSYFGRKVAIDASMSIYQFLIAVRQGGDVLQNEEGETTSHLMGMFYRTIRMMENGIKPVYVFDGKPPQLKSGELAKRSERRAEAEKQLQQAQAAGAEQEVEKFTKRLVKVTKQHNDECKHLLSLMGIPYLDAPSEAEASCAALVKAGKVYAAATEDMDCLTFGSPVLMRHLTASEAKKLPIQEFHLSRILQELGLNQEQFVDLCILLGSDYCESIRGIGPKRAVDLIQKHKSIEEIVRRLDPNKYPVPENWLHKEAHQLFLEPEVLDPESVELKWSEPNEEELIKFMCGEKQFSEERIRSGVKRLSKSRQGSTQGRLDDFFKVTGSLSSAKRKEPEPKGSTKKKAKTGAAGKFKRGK
UniProt Q9UHY8: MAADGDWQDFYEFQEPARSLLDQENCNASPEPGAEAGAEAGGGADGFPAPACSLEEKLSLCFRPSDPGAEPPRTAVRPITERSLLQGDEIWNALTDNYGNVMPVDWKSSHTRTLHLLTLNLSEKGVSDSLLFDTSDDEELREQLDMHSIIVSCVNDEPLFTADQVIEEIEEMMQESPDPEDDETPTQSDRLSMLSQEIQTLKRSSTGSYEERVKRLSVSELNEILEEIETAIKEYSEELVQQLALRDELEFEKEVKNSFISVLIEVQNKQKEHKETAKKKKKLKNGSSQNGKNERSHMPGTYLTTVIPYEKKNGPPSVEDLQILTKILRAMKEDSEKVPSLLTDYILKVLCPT
UniProt O95363: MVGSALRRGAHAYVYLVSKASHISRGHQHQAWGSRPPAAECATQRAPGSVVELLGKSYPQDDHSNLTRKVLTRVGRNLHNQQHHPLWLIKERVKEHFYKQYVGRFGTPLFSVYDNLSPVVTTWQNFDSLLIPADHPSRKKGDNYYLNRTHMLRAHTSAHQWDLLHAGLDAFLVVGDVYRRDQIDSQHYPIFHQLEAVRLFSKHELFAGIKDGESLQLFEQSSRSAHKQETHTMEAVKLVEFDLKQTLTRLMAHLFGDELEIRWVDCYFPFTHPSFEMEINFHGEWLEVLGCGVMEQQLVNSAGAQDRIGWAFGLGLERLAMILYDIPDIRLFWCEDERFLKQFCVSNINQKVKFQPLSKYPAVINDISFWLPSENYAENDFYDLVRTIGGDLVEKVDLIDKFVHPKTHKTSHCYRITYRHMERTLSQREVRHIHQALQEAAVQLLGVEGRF
UniProt Q96AC1: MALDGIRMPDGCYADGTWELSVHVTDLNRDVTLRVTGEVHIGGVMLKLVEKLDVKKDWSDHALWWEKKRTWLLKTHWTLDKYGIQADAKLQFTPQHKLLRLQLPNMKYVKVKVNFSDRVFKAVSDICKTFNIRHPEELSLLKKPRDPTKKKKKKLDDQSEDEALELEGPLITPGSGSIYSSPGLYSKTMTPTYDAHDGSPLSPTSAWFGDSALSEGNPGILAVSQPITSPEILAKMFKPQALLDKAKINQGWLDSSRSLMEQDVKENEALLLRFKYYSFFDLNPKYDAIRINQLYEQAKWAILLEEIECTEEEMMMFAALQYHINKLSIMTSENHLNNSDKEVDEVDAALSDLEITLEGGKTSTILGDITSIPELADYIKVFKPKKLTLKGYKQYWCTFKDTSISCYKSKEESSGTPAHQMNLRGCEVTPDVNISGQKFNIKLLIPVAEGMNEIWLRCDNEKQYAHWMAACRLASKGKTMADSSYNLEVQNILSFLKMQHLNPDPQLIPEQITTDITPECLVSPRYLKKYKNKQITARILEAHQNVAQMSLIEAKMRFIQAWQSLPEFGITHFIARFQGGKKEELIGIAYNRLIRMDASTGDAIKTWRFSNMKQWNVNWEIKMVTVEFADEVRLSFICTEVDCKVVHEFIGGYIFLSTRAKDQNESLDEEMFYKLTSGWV
UniProt Q8NFG4: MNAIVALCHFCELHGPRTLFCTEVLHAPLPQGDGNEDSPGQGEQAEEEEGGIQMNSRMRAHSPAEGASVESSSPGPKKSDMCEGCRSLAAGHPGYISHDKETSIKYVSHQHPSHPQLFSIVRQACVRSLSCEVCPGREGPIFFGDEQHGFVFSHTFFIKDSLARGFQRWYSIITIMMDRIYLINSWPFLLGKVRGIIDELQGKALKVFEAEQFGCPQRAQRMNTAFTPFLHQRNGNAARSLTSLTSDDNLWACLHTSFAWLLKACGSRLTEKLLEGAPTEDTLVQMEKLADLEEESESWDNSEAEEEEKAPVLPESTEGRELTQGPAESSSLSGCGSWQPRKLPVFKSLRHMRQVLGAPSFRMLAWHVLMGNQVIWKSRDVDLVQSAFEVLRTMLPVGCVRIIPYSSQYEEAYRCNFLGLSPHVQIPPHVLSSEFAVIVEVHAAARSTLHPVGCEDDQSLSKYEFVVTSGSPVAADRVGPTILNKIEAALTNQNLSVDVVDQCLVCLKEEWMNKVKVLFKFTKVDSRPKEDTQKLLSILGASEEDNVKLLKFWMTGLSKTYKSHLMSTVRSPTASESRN

What was measured:
Assay in all cases: log2 fold change, soluble protein after heating vs DMSO (PISA); higher = thermal stabilisation; K562 cells, 10 uM, 30 min; active = over 0.2 and 3.5 SD of the protein, either way, in both replicates (recomputed)
IRAK-1-4 Inhibitor I = compound: C1COCCN1CCN2C3=CC=CC=C3N=C2NC(=O)C4=CC(=CC=C4)[N+](=O)[O-] [IRAK-1-4 Inhibitor I]
Method in brief: (§1)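 Aliquots of K562 cells (2×10^6 cells/mL) treated with 10 μM compound for 30 min were heated for 3 min over 48°C-58°C. After pooling and extraction in PBS with 0.5% NP-40 at 4°C, soluble protein from a 21,000xg, 90 min spin was quantified by TMTpro 16plex LC-MS/MS with channel sums equalised. Thermal stability is expressed against control samples, from duplicates, as a log2 fold change.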

[1] = compound: CC(=O)c1cnc2ccc(-c3cc(Cl)c(O)c(Cl)c3)nc2c1N[C@H]1CC[C@H](CN(C)C)CC1
Method in brief: as §1

[2] = compound: CC(C)(O)CC(=O)NCCn1ccc2ncnc(Nc3ccc(Oc4cccc(C(F)(F)F)c4)c(Cl)c3)c21
Method in brief: as §1

pinometostat = compound: CC(C)N(C[C@H]1O[C@@H](n2cnc3c(N)ncnc32)[C@H](O)[C@@H]1O)[C@H]1C[C@@H](CCc2nc3cc(C(C)(C)C)ccc3[nH]2)C1 [pinometostat]
Method in brief: as §1

[3] = compound: CC1=C(C(CC(=O)N1)C2=CC=C(C=C2)C(F)(F)F)C(=O)NC3=C(C=C4C(=C3)C=NN4)F
Method in brief: as §1

[4] = compound: CC1=C(C=C(C=C1)NC(=O)C2=CC(=CC=C2)C(C)(C)C#N)NC3=CC4=C(C=C3)N=CN(C4=O)C
Method in brief: as §1

[5] = compound: CC1=CC=C(C=C1)SC2=C3C=C(SC3=CN=C2)C(=O)N
Method in brief: as §1

[6] = compound: CC1=NC(=CC=C1)C2=C(N=C(N2)C(C)(C)C)C3=CC4=NC=CN=C4C=C3
Method in brief: as §1

Nexturastat A = compound: CCCCN(Cc1ccc(C(=O)NO)cc1)C(=O)Nc1ccccc1 [Nexturastat A]
Method in brief: as §1

vemurafenib = compound: CCCS(=O)(=O)Nc1ccc(F)c(C(=O)c2c[nH]c3ncc(-c4ccc(Cl)cc4)cc23)c1F [vemurafenib]
Method in brief: as §1

[7] = compound: CCCS(=O)(=O)Nc1ccc(F)c(C(=O)c2c[nH]c3ncc(Cl)cc23)c1F
Method in brief: as §1

ibrutinib = compound: C=CC(=O)N1CCC[C@@H](n2nc(-c3ccc(Oc4ccccc4)cc3)c3c(N)ncnc32)C1 [ibrutinib]
Method in brief: as §1

ralimetinib = compound: CC(C)(C)Cn1c(N)nc2ccc(-c3[nH]c(C(C)(C)C)nc3-c3ccc(F)cc3)nc21 [ralimetinib]
Method in brief: as §1

[8] = compound: CC(C)C1=C2N=C(C=C(N2N=C1)NCC3=CC=CC=C3)NCCCCCCN
Method in brief: as §1

[9] = compound: CC(C)C[C@@H](C=O)NC(=O)[C@H](CC(C)C)NC(=O)[C@H](CC(C)C)NC(=O)OCc1ccccc1
Method in brief: as §1

[10] = compound: CC1=C(C2=C(C=C1)C(=O)C3=CC=CC=C3N2CCCN)C
Method in brief: as §1

[11] = compound: CC1=C(C=C(C=C1)NC(=O)C2=CC(=CC=C2)N(C)C)NC(=O)C3=CC=C(C=C3)O
Method in brief: as §1

[12] = compound: CCCc1cc(C)[nH]c(=O)c1CNC(=O)c1cc(-c2ccnc(N3CCN(C)CC3)c2)cc2c1cnn2C(C)C
Method in brief: as §1

givinostat = compound: CCN(CC)Cc1ccc2cc(COC(=O)Nc3ccc(C(=O)NO)cc3)ccc2c1 [givinostat]
Method in brief: as §1

barasertib = compound: CCN(CCCOc1ccc2c(Nc3cc(CC(=O)Nc4cccc(F)c4)[nH]n3)ncnc2c1)CCOP(=O)(O)O [barasertib]
Method in brief: as §1

Measured: log2 fold change

FBRS (UniProt J3KNZ9)
inactive: IRAK-1-4 Inhibitor I 0.055 | [1] -0.207 | [2] 0.161 | pinometostat 0.235 | [3] 0.052 | [4] -0.229 | [5] 0.403 | [6] -0.174 | Nexturastat A 0.554 | vemurafenib 0.074 | [7] -0.092

FDFT1 (UniProt P37268)
inactive: IRAK-1-4 Inhibitor I 0.001 | ibrutinib 0.007 | [1] -0.025 | ralimetinib -0.028 | [2] -0.015 | [8] -0.083 | [9] 0.077 | pinometostat -0.042 | [10] -0.06 | [4] -0.008 | [11] 0.01 | [5] 0.063 | [6] -0.034 | Nexturastat A 0.01 | vemurafenib 0 | [7] 0.092 | [12] 0.1 | givinostat -0.018 | barasertib 0.009

FBXO38 (UniProt Q6PIJ6)
inactive: IRAK-1-4 Inhibitor I -0.022 | ibrutinib 0.014 | [1] -0.107 | ralimetinib -0.148 | [2] 0.244 | [8] -0.157 | [9] 0.171 | pinometostat 0.066 | [10] 0.113 | [4] 0.146 | [11] 0.077 | [5] -0.033 | [6] 0.082 | Nexturastat A -0.111 | vemurafenib 0.059 | [7] -0.17 | givinostat 0.007 | barasertib -0.03

FGFR1OP2 (UniProt Q9NVK5)
inactive: IRAK-1-4 Inhibitor I -0.016 | ibrutinib -0.022 | [1] -0.046 | [2] 0.178 | [8] -0.068 | pinometostat 0.1 | [3] -0.034 | [10] -0.068 | [6] -0.099 | Nexturastat A -0.057 | vemurafenib 0.04 | [12] -0.076 | givinostat 0.08 | barasertib 0

FAM219A (UniProt Q8IW50)
inactive: IRAK-1-4 Inhibitor I -0.07 | ibrutinib 0.023 | [1] -0.009 | [2] 0.041 | [8] -0.035 | pinometostat 0.003 | [3] -0.046 | [10] 0.041 | [4] -0.021 | [5] -0.031 | [6] 0.064 | Nexturastat A 0.001 | [7] -0.033 | [12] -0.058 | givinostat 0.029 | barasertib -0.114

FNTA (UniProt P49354)
inactive: IRAK-1-4 Inhibitor I 0.052 | ibrutinib 0.107 | [1] 0.081 | ralimetinib -0.05 | [2] -0.023 | [8] 0.016 | [9] -0.031 | pinometostat -0.018 | [10] -0.074 | [4] -0.035 | [11] -0.009 | [5] 0.048 | [6] -0.011 | Nexturastat A -0.063 | vemurafenib -0.045 | [7] -0.047 | [12] 0.007 | givinostat -0.052 | barasertib 0.007

FBXO7 (UniProt Q9Y3I1)
inactive: IRAK-1-4 Inhibitor I -0.008 | ibrutinib 0.036 | [1] -0.024 | ralimetinib -0.005 | [2] -0.068 | [8] 0.001 | [9] -0.013 | pinometostat 0.042 | [10] 0.044 | [4] -0.048 | [11] -0.028 | [5] 0.004 | [6] -0.014 | Nexturastat A 0.047 | vemurafenib 0.017 | [7] -0.022 | [12] -0.026 | givinostat 0.03 | barasertib 0.02

FKBP7 (UniProt Q9Y680)
inactive: IRAK-1-4 Inhibitor I 0.018 | ibrutinib 0.033 | [1] -0.031 | ralimetinib -0.033 | [2] 0.017 | [8] 0.055 | [9] -0.005 | pinometostat -0.059 | [10] -0.022 | [4] -0.052 | [11] 0.001 | [5] -0.034 | [6] -0.074 | Nexturastat A 0.002 | vemurafenib -0.031 | [7] -0.097 | [12] -0.025 | givinostat 0.002 | barasertib 0.044

FASTKD1 (UniProt Q53R41)
inactive: IRAK-1-4 Inhibitor I 0.016 | ibrutinib -0.186 | [1] -0.043 | ralimetinib 0.013 | [2] -0.316 | [8] -0.047 | [9] 0.116 | pinometostat 0.038 | [10] 0.2 | [4] -0.066 | [11] -0.138 | [6] 0.017 | Nexturastat A 0.013 | vemurafenib 0.065 | givinostat 0.156 | barasertib 0.096

Two consecutive entries already listed, quoted:
FNTA (UniProt P49354)
inactive: IRAK-1-4 Inhibitor I 0.052 | ibrutinib 0.107 | [1] 0.081 | ralimetinib -0.05 | [2] -0.023 | [8] 0.016 | [9] -0.031 | pinometostat -0.018 | [10] -0.074 | [4] -0.035 | [11] -0.009 | [5] 0.048 | [6] -0.011 | Nexturastat A -0.063 | vemurafenib -0.045 | [7] -0.047 | [12] 0.007 | givinostat -0.052 | barasertib 0.007

FBXO7 (UniProt Q9Y3I1)
inactive: IRAK-1-4 Inhibitor I -0.008 | ibrutinib 0.036 | [1] -0.024 | ralimetinib -0.005 | [2] -0.068 | [8] 0.001 | [9] -0.013 | pinometostat 0.042 | [10] 0.044 | [4] -0.048 | [11] -0.028 | [5] 0.004 | [6] -0.014 | Nexturastat A 0.047 | vemurafenib 0.017 | [7] -0.022 | [12] -0.026 | givinostat 0.03 | barasertib 0.02

More results:

FAT3 isoform 1 (UniProt Q8TDW7)
inactive: IRAK-1-4 Inhibitor I -0.275 | ibrutinib 0.495 | ralimetinib 0.22 | [2] 0.057 | [8] 0.18 | [9] 0.193 | pinometostat 0.062 | [3] -0.085 | [4] 0.001 | [11] 0.558 | [5] 0.119 | [6] 0.068 | Nexturastat A 0.157 | vemurafenib -0.054 | [7] -0.054 | [12] -0.128 | givinostat 0.187 | barasertib -0.095

FHOD1 (UniProt Q9Y613)
inactive: IRAK-1-4 Inhibitor I -0.053 | ibrutinib 0.011 | [1] 0.042 | ralimetinib 0.193 | [2] 0.035 | [8] -0.197 | [9] 0.148 | pinometostat 0.458 | [4] -0.288 | [11] 0.073 | [5] -0.063 | [6] -0.09 | Nexturastat A 0.365 | vemurafenib -0.002 | [7] -0.134 | [12] 0.132 | givinostat 0.024 | barasertib 0.044

FCHSD1 (UniProt Q86WN1)
inactive: IRAK-1-4 Inhibitor I -0.012 | [1] -0.019 | ralimetinib 0.025 | [2] -0.047 | [8] -0.012 | [9] -0.087 | pinometostat 0.108 | [4] -0.173 | [11] 0.078 | [5] -0.119 | [6] -0.072 | Nexturastat A -0.038 | [7] 0.088 | givinostat 0.001

FBXO3 (UniProt Q9UK99)
inactive: IRAK-1-4 Inhibitor I 0.038 | ibrutinib -0.003 | [1] -0.008 | ralimetinib 0.171 | [2] 0.021 | [8] -0.014 | [9] 0.031 | pinometostat 0 | [10] -0.047 | [4] -0.042 | [11] -0.08 | [5] 0 | [6] -0.018 | Nexturastat A -0.043 | vemurafenib -0.089 | [7] -0.025 | [12] -0.057 | givinostat 0.049 | barasertib -0.043

FEN1 (UniProt P39748)
inactive: IRAK-1-4 Inhibitor I -0.071 | ibrutinib -0.016 | [1] -0.116 | ralimetinib -0.008 | [2] -0.368 | [8] -0.393 | [9] 0.039 | pinometostat -0.03 | [10] -0.016 | [4] 0.018 | [11] -0.08 | [5] 0.045 | [6] 0.057 | Nexturastat A -0.194 | vemurafenib 0.121 | [7] 0.022 | [12] -0.03 | givinostat 0.096 | barasertib 0.088

FEZ2 isoform 2 (UniProt Q9UHY8)
inactive: IRAK-1-4 Inhibitor I 0.003 | ibrutinib -0.054 | [1] -0.064 | ralimetinib 0.094 | [9] 0.015 | pinometostat -0.035 | [3] -0.003 | [4] 0.002 | [11] 0.006 | [5] -0.148 | [6] -0.092 | vemurafenib -0.036 | [7] 0 | [12] 0.015 | barasertib -0.082

FARS2 (UniProt O95363)
inactive: IRAK-1-4 Inhibitor I 0 | ibrutinib -0.038 | [1] -0.05 | ralimetinib -0.004 | [2] -0.028 | [8] -0.182 | [9] -0.001 | pinometostat 0.002 | [10] -0.018 | [4] 0.012 | [11] -0.015 | [5] -0.032 | [6] 0.078 | Nexturastat A 0.044 | vemurafenib 0.032 | [7] 0.01 | [12] -0.087 | givinostat -0.019 | barasertib 0.035

FERMT2 isoform 3 (UniProt Q96AC1)
inactive: IRAK-1-4 Inhibitor I 0.36 | ibrutinib 0.028 | ralimetinib -0.06 | [2] 0.075 | [8] -0.036 | [9] -0.002 | pinometostat 0.07 | [3] 0.061 | [10] 0.11 | [4] -0.15 | [11] 0.046 | [5] 0.098 | [6] -0.001 | Nexturastat A -0.218 | [7] -0.072 | [12] -0.131 | givinostat -0.283 | barasertib 0.05

FLCN (UniProt Q8NFG4)
inactive: IRAK-1-4 Inhibitor I 0.108 | [1] 0.067 | ralimetinib -0.189 | [2] -0.179 | [8] 0.033 | [9] 0.257 | pinometostat 0.013 | [3] 0.082 | [10] 0.081 | [4] -0.106 | [11] 0.097 | [6] -0.031 | Nexturastat A 0.008 | vemurafenib 0.076 | [12] -0.065 | givinostat -0.035
